# PubChem BioAssay AID1259308, NCATS – 2017
# Assay: 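Knock-downs that increase output of a recombinant reporter protein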 (primary screen)
# System: human HEK293 embryonic kidney cells stably expressing firefly luciferase (HEK-CMV-Luc2-Hygro)
# Reagents: single siRNA against human genes, 0.8 pmol siRNA per well
# Duration: 72 h
# Detection: 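Luciferase light (ONE-Glo) measured on one replicate plate set and viability (CellTiter-Glo) on the other, scaled to a negative control siRNA, with robust z-scores and luciferase per cell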
# Scale: total luciferase, z-score and total luciferase, % of control: higher = more reporter protein produced; luciferase per cell, z-score: higher = more reporter output per viable cell; viable cells, % of control: higher = more viable cells
# Active means: 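An siRNA counts as active if its total luciferase robust z-score exceeds 3; genes with two or more such siRNAs out of three were retested with fresh siRNAs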
# Calls: active = raised luciferase; inactive = no rise
# The whole screen tested about 59,000 reagents; shown is a part drawn at random. About 1,510 of them (2.6%) count as active. 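Calls use total luciferase alone and ignore viability, so some active siRNAs may act by altering cell number.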 Reagents against one gene are numbered here.
target gene,reagent no.,"total luciferase, z-score","total luciferase, % of control","luciferase per cell, z-score","viable cells, % of control",outcome
SMARCC2,1,0.311,88.1,0.0536,97,inactive
SMARCC2,2,0.082,83.5,0.0584,91.9,inactive
SMARCC2,3,-1.22,57.7,-1.35,92,inactive
KHNYN,1,-2.06,40.9,-1.88,75,inactive
KHNYN,2,0.235,86.6,0.0804,94.7,inactive
KHNYN,3,-0.687,68.2,-0.337,83.3,inactive
IMMP2L,1,0.0279,82.4,-0.484,105,inactive
IMMP2L,2,-2.03,41.6,-2.89,99.4,inactive
IMMP2L,3,1.89,119,0.891,106,inactive
AASDH,1,0.079,83.5,-0.405,104,inactive
AASDH,2,-0.387,74.2,-0.671,98.9,inactive
AASDH,3,0.385,89.5,0.125,96.8,inactive
AKAP11,1,0.0118,82.1,-0.628,108,inactive
AKAP11,2,0.368,89.2,-0.431,112,inactive
AKAP11,3,1.89,120,2.4,71,inactive
TRIM42,1,-0.415,73.6,0.175,78.6,inactive
TRIM42,2,-0.681,68.3,-0.87,96,inactive
TRIM42,3,0.408,90,0.386,90.9,inactive

The list goes on, starting with the last 4 of the part before.
target gene,reagent no.,"total luciferase, z-score","total luciferase, % of control","luciferase per cell, z-score","viable cells, % of control",outcome
AKAP11,3,1.89,120,2.4,71,inactive
TRIM42,1,-0.415,73.6,0.175,78.6,inactive
TRIM42,2,-0.681,68.3,-0.87,96,inactive
TRIM42,3,0.408,90,0.386,90.9,inactive
FOXG1,1,0.197,85.8,-0.148,99.7,inactive
FOXG1,2,1.26,107,0.852,95.4,inactive
FOXG1,3,0.823,98.3,1.59,72.3,inactive
GHRL,1,0.0253,82.4,-0.63,109,inactive
GHRL,2,0.0294,82.5,0.0866,90.1,inactive
GHRL,3,1.6,114,1.9,77,inactive
MBD6,1,-0.623,69.5,0.923,60.9,inactive
MBD6,2,3.41,150,2.25,92.5,active
MBD6,3,0.962,101,0.913,88.7,inactive
ZSCAN5C,1,0.528,92.4,0.624,87.6,inactive
ZSCAN5C,2,0.221,86.3,0.825,77.6,inactive
ZSCAN5C,3,-0.686,68.2,-0.96,98.2,inactive
MNS1,1,-0.367,74.6,-0.268,89.4,inactive
MNS1,2,0.84,98.6,0.211,104,inactive
MNS1,3,-0.473,72.5,-0.0451,82,inactive
ZBTB33,1,-0.796,66.1,-0.529,84.9,inactive
ZBTB33,2,0.0936,83.7,0.0693,91.9,inactive
ZBTB33,3,0.819,98.2,-0.0106,110,inactive
NPBWR1,1,-0.981,62.4,-0.487,79.2,inactive
NPBWR1,2,0.298,87.8,0.112,95.3,inactive
NPBWR1,3,-0.457,72.8,0.64,68.7,inactive
